Experimental data from the supplement of paper PMC10849652.
This is one part of the list.

Chains of the proteins cited; added tags and fusions are not shown. Lines headed by an entry give the natural chain unless they say otherwise; changes in a name come on top.
UniProt Q9H8V3: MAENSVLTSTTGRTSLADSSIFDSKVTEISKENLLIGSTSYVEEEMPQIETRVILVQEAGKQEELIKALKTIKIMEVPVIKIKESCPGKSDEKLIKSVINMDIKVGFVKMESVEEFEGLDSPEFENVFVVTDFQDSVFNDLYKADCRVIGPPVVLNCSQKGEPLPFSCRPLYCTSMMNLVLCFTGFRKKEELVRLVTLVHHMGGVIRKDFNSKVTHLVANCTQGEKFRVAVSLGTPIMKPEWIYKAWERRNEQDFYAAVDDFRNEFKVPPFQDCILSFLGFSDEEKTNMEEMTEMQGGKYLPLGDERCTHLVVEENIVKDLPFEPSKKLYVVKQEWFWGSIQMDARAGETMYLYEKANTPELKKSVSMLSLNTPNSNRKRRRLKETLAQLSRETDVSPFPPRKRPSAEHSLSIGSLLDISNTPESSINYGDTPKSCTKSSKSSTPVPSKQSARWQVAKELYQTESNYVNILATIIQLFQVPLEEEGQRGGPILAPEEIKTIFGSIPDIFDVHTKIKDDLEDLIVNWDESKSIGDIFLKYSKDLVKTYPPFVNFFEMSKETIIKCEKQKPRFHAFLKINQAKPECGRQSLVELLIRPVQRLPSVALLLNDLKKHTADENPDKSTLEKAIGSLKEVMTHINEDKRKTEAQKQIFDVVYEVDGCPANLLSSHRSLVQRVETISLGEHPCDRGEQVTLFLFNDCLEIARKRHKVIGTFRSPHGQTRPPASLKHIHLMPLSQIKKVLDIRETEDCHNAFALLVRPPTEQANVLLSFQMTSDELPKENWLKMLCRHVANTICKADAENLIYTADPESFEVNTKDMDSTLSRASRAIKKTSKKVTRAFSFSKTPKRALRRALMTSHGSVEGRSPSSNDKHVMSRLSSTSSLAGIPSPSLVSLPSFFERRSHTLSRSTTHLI
UniProt Q6XUX3: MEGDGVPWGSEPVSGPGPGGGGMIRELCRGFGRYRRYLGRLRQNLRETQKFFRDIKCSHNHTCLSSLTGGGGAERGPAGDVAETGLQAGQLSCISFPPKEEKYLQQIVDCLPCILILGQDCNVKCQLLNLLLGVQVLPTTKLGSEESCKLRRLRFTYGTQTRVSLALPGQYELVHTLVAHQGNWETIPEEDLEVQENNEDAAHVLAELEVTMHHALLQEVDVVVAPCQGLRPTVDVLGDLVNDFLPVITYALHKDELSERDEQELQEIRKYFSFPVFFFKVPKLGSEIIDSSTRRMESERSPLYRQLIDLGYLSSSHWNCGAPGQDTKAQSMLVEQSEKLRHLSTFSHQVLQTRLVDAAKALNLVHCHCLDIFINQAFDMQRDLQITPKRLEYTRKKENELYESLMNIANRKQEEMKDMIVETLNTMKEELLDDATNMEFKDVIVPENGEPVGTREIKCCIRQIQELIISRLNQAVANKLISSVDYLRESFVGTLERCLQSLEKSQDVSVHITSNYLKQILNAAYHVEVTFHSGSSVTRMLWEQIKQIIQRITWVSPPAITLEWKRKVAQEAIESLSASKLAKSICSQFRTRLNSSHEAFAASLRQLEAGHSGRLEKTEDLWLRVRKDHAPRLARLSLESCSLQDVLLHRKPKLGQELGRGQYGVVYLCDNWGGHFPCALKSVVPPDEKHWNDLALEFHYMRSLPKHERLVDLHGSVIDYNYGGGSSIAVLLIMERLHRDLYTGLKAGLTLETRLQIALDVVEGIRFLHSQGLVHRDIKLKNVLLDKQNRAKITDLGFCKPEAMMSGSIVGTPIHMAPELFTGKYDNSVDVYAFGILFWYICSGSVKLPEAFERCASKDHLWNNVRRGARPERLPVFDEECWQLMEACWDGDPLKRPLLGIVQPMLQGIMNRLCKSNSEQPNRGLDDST
UniProt P25686: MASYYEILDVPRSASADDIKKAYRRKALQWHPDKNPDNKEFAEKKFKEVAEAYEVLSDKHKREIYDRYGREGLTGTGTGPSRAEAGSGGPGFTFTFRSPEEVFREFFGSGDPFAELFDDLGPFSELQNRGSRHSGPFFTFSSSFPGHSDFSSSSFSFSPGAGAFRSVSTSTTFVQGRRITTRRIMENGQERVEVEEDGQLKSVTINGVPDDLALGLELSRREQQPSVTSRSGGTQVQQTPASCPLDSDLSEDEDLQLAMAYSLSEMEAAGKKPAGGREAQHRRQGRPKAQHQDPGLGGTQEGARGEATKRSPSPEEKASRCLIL
UniProt P50570: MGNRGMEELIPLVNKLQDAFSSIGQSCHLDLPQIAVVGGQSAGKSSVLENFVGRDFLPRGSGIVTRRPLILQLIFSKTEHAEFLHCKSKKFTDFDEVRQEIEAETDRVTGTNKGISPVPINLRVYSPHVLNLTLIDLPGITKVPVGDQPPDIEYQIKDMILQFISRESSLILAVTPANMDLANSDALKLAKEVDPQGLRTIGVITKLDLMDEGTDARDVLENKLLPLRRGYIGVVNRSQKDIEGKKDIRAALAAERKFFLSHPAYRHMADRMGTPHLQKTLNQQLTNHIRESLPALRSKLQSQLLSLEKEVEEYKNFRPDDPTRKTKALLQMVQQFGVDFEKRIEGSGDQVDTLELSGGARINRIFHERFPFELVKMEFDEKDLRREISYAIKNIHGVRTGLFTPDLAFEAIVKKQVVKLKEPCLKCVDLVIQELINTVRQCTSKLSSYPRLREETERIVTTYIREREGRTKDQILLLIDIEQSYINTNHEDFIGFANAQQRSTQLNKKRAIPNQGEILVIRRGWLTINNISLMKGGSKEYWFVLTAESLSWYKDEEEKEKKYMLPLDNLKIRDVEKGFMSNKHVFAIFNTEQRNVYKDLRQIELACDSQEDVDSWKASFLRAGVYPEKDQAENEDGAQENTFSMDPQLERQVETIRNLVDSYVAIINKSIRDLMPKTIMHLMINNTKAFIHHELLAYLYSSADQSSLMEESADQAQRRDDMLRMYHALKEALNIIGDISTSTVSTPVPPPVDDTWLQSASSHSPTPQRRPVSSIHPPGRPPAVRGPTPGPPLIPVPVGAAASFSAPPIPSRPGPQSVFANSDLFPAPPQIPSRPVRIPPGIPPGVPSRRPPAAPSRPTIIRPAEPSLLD
UniProt Q96BY6: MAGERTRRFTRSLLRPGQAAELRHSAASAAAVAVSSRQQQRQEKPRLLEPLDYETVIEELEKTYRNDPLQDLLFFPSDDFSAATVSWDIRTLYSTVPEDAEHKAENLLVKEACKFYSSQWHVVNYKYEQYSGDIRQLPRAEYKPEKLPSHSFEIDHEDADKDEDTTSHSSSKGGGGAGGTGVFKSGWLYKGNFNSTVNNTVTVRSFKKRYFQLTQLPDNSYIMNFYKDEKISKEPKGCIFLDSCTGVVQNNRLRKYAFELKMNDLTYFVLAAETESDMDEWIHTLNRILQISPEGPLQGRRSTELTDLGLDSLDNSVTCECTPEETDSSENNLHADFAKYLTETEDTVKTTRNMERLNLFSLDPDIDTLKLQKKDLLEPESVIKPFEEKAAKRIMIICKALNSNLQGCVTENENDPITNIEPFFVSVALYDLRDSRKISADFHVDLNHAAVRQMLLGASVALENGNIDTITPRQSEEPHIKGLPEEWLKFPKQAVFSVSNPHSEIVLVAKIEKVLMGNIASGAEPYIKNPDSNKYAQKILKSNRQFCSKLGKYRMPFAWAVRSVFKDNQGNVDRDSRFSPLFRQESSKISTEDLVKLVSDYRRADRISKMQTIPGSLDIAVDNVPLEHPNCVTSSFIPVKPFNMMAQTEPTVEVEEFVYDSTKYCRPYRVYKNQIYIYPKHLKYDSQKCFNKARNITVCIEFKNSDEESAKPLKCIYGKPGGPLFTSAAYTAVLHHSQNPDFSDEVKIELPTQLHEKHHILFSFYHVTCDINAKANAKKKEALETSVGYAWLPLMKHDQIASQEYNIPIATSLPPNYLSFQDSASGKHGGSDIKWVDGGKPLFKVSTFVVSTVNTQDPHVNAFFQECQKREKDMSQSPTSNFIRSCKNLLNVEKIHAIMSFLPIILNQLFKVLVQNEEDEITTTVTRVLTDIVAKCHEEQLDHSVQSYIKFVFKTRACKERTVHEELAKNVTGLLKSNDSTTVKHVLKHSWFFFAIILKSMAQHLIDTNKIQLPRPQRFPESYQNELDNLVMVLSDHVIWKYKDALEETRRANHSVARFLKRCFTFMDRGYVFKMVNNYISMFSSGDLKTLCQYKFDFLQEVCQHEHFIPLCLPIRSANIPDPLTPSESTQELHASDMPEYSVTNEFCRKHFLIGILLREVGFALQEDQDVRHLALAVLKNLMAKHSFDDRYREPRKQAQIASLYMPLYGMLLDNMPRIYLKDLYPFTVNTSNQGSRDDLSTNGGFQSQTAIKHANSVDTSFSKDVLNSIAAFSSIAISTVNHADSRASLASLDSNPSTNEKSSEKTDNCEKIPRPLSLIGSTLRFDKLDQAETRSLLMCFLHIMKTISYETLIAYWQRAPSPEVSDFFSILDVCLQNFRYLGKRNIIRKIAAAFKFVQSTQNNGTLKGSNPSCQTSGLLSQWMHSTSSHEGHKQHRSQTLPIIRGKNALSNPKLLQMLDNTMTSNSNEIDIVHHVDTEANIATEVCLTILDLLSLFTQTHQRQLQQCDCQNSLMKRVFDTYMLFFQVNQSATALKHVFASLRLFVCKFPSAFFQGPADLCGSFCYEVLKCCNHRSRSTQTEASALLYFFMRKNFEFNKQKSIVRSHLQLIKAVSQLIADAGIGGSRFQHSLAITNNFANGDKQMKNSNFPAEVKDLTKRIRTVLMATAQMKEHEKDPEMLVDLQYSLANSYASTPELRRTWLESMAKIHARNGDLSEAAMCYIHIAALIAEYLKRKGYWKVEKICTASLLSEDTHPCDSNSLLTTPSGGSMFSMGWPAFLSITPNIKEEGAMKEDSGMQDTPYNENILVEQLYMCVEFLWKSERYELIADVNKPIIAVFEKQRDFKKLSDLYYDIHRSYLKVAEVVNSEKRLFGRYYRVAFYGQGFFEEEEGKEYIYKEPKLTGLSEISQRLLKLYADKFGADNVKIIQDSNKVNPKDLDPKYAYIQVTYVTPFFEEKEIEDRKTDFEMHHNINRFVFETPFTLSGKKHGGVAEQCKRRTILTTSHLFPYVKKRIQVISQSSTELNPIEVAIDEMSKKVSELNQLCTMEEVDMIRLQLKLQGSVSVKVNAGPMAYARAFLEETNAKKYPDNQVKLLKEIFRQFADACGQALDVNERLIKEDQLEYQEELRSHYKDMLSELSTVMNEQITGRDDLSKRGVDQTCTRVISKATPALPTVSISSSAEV
UniProt Q86YN1: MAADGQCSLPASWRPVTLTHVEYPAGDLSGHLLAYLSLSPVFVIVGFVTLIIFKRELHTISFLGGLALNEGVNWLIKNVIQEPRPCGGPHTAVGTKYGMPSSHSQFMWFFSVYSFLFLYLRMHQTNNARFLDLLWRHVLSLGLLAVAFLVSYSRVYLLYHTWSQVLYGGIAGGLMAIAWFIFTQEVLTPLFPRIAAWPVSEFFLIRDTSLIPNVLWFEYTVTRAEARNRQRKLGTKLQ
UniProt O77932: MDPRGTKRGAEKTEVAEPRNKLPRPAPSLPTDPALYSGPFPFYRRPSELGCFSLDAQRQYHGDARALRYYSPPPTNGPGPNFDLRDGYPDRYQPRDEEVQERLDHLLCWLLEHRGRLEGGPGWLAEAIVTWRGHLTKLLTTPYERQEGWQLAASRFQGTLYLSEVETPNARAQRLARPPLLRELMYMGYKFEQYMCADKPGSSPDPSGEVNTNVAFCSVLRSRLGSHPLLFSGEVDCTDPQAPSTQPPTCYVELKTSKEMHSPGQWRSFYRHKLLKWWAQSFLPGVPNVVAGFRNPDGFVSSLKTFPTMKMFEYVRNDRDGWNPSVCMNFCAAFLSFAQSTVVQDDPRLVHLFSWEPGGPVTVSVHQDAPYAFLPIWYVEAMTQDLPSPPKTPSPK
UniProt P51808: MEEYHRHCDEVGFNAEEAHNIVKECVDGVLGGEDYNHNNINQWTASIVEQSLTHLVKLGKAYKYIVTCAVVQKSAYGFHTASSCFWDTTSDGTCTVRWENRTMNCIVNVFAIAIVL
UniProt Q16610: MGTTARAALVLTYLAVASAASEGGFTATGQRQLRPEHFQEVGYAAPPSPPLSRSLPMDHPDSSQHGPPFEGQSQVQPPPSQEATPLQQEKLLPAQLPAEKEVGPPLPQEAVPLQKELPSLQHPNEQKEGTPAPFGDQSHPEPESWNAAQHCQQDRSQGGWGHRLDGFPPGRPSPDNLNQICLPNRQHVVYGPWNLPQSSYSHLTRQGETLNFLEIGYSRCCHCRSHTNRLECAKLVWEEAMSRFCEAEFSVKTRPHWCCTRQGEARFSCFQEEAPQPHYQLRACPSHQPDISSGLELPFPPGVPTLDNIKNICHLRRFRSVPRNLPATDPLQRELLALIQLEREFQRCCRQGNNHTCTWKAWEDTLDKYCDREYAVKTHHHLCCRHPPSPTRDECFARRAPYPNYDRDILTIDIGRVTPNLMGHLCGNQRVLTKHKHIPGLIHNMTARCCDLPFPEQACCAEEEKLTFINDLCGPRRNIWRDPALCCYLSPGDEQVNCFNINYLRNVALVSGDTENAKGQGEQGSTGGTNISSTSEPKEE

Each target was assayed with O=C(CCCCCCNC(=O)c1cnc(N(c2ccccc2)c2ccccc2Cl)nc1)NO [citarinostat] (assay: log2 fold change, soluble protein after heating vs DMSO (PISA); higher = thermal stabilisation; K562 cells, 10 uM, 30 min; active = over 0.2 and 3.5 SD of the protein, either way, in both replicates (recomputed)).
Outline: (§1)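 K562 cells at 2×10^6 cells/mL were given 10 μM compound for 30 min. Aliquots then went through 3 min of heating across 48°C-58°C, were pooled, and were extracted in PBS with 0.5% NP-40 at 4°C, and the supernatant after 21,000xg for 90 min was quantified by TMTpro 16plex LC-MS/MS with channel sums equalised. Thermal stability relative to control samples, from duplicates, is given as log2 fold change.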

log2 fold change, inactive:
ECT2 isoform 3 (UniProt Q9H8V3) 0.087
DOCK11, A0A0J9YW64 0.006
DSTYK (UniProt Q6XUX3) 0.161
DNAJB2 (UniProt P25686) 0.045
EDRF1 (UniProt Q3B7T1) -0.044
DNM2 isoform 4 (UniProt P50570) -0.113
DPY19L2 (UniProt Q6NUT2) 0.046
DOCK10 (UniProt Q96BY6) 0.024
DOLPP1 (UniProt Q86YN1) 0.075
DXO (UniProt O77932) -0.139
DYNLT3 (UniProt P51808) 0.021

Each target was assayed with O=C(O)c1ccc2c(c1)nc(Nc1cccc(Cl)c1)c1ccncc12 [silmitasertib] in the same assay as above.
Outline: as §1

log2 fold change, inactive:
DRAP1 (UniProt E9PQX9) -0.085
DOCK11, A0A0J9YW64 0.159
DUS1L (UniProt Q6P1R4) 0.435
DUSP14 (UniProt O95147) -0.089
ECM1 isoform 2 (UniProt Q16610) 0.104
EDRF1 (UniProt Q3B7T1) -0.031
DNM2 isoform 4 (UniProt P50570) 0.116
DNAJC14 (UniProt Q6Y2X3) -0.116
DNAJB14 (UniProt H7C494) -0.102
DPY19L2 (UniProt Q6NUT2) -0.009
DOCK10 (UniProt Q96BY6) 0.102
DOLPP1 (UniProt Q86YN1) 0.008
DXO (UniProt O77932) -0.032
DOP1A (UniProt Q5JWR5) -0.056
DNPH1 (UniProt H0Y8X4) 0.113

What follows are targets tested with O=C1NC(=O)C(c2cnc3ccccn23)=C1c1cn2c3c(cc(F)cc13)CN(C(=O)N1CCCCC1)CC2 in the same assay as above.
Outline: as §1

log2 fold change, inactive:
ECT2 isoform 3 (UniProt Q9H8V3) -0.258
DUSP14 (UniProt O95147) 0.146
DSTYK (UniProt Q6XUX3) -0.059
DNAJB2 (UniProt P25686) 0.042
EDRF1 (UniProt Q3B7T1) -0.057
DNM2 isoform 4 (UniProt P50570) 0.19
DYNC1I1 (UniProt O14576) -0.044
DROSHA (UniProt Q9NRR4) 0.412
DXO (UniProt O77932) -0.129
DNM1 (UniProt Q05193) -0.448
DUSP9 (UniProt Q99956) 0.137
DOP1A (UniProt Q5JWR5) 0
DUSP12 (UniProt V9GYV5) 0.066
DNAL1 (UniProt Q4LDG9) -0.26

These targets were tested with c1cc(OCCN2CCCCC2)cc(-c2n[nH]c3ccc(-c4nnc[nH]4)cc23)c1 in the same assay as above.
Outline: as §1

log2 fold change, inactive:
ECT2 isoform 3 (UniProt Q9H8V3) -0.146
DOCK11, A0A0J9YW64 -0.077
DSTYK (UniProt Q6XUX3) -0.141
DNAJB2 (UniProt P25686) -0.041
EDRF1 (UniProt Q3B7T1) -0.103
DNM2 isoform 4 (UniProt P50570) 0.06
DPY19L2 (UniProt Q6NUT2) -0.127
DOCK10 (UniProt Q96BY6) -0.284
DOLPP1 (UniProt Q86YN1) -0.007
DXO (UniProt O77932) -0.039
DYNLT3 (UniProt P51808) -0.066

The targets below were run with c1cn2cc(-c3ccc4cn[nH]c4c3)nc(Nc3ccc(N4CCOCC4)cc3)c2n1 [entospletinib] in the same assay as above.
Outline: as §1

log2 fold change, inactive:
ECT2 isoform 3 (UniProt Q9H8V3) -0.167
DOCK11, A0A0J9YW64 0.118
DSTYK (UniProt Q6XUX3) -0.105
DNAJB2 (UniProt P25686) -0.036
DPY19L2 (UniProt Q6NUT2) 0.075
DOCK10 (UniProt Q96BY6) -0.066
DXO (UniProt O77932) -0.145
DYNLT3 (UniProt P51808) 0.045
